Reference: US7354726B2, “Screening method” (Takeda Pharmaceutical Company Limited, priority 2001, dated 2008)
Entries after “also recorded” stand apart in the source; their conditions may differ. At least one structure is not confirmed: it was looked up by name or label, or the drawing left a doubt.

Test system: rabbit alveolus macrophage
Assay: Phagocytotic activity of rabbit alveolus macrophage (yeast uptake, fuchsin staining)
Conditions: 100 μM, 16 hours

C[C@H](CCC(=O)NCCS(=O)(=O)O)[C@H]1CC[C@H]2[C@@H]3CC[C@@H]4C[C@H](O)CC[C@]4(C)[C@H]3CC[C@]12C [TLCA, taurolithocholic acid]
phagocytotic activity of macrophage: significantly reduced; also recorded: significantly decreased
